# Test results published in the supplement of paper PMC8728848.
# The other results are listed elsewhere or left out.
# Columns and labels:
# Experiment in all cases: glycan array binding signal (z-score within array); higher = stronger binding
# Conditions in all cases: glycan notation: IUPAC condensed, linker removed
# [1] = biological target: Fuc(a1-2)Gal6S(b1-3)GlcNAc6S
# Outline: (§1)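 The binding signal is a Z-score computed within each array and averaged over linkers. Arrays of the same protein sequence at different concentrations or buffers were also averaged together. Data originate from 3228 arrays in the Consortium for Functional Glycomics database, kept only where the protein sequence was available.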
# Fuc(a1-2)Gal6S(b1-4)Glc = biological target: Fuc(a1-2)Gal6S(b1-4)Glc
# Outline: as §1
# [2] = biological target: Fuc(a1-2)Gal6S(b1-4)Glc6S
# Outline: as §1
# Fuc(a1-2)[Gal(a1-3)]Gal = biological target: Fuc(a1-2)[Gal(a1-3)]Gal
# Outline: as §1
# [3] = biological target: Fuc(a1-2)[Gal(a1-3)]Gal(b1-3)GalNAc
# Outline: as §1
# [4] = biological target: Fuc(a1-2)[Gal(a1-3)]Gal(b1-3)GalNAc(b1-3)Gal(a1-4)Gal(b1-4)Glc
# Outline: as §1
# [5] = biological target: Fuc(a1-2)[Gal(a1-3)]Gal(b1-3)GlcNAc
# Outline: as §1
# [6] = biological target: Fuc(a1-2)[Gal(a1-3)]Gal(b1-3)GlcNAc(b1-2)Man(a1-3)[Fuc(a1-2)[Gal(a1-3)]Gal(b1-3)GlcNAc(b1-2)Man(a1-6)]Man(b1-4)GlcNAc(b1-4)GlcNAc
# Outline: as §1
# [7] = biological target: Fuc(a1-2)[Gal(a1-3)]Gal(b1-3)GlcNAc(b1-2)Man(a1-3)[Fuc(a1-2)[Gal(a1-3)]Gal(b1-3)GlcNAc(b1-2)Man(a1-6)]Man(b1-4)GlcNAc(b1-4)[Fuc(a1-6)]GlcNAc
# Outline: as §1
# [8] = biological target: Fuc(a1-2)[Gal(a1-3)]Gal(b1-3)GlcNAc(b1-3)GalNAc
# Outline: as §1
# [9] = biological target: Fuc(a1-2)[Gal(a1-3)]Gal(b1-3)GlcNAc(b1-6)GalNAc
# Outline: as §1
# [10] = biological target: Fuc(a1-2)[Gal(a1-3)]Gal(b1-4)Glc
# Outline: as §1
# [11] = biological target: Fuc(a1-2)[Gal(a1-3)]Gal(b1-4)GlcNAc
# Outline: as §1
# [12] = biological target: Fuc(a1-2)[Gal(a1-3)]Gal(b1-4)GlcNAc(b1-2)Man
# Outline: as §1
# [13] = biological target: Fuc(a1-2)[Gal(a1-3)]Gal(b1-4)GlcNAc(b1-2)Man(a1-3)[Fuc(a1-2)[Gal(a1-3)]Gal(b1-4)GlcNAc(b1-2)Man(a1-6)]Man(b1-4)GlcNAc(b1-4)GlcNAc
# Outline: as §1
# [14] = biological target: Fuc(a1-2)[Gal(a1-3)]Gal(b1-4)GlcNAc(b1-2)Man(a1-3)[Fuc(a1-2)[Gal(a1-3)]Gal(b1-4)GlcNAc(b1-2)Man(a1-6)]Man(b1-4)GlcNAc(b1-4)[Fuc(a1-6)]GlcNAc
# Outline: as §1
# [15] = biological target: Fuc(a1-2)[Gal(a1-3)]Gal(b1-4)GlcNAc(b1-3)GalNAc
# Outline: as §1
# [16] = biological target: Fuc(a1-2)[Gal(a1-3)]Gal(b1-4)GlcNAc(b1-3)[Fuc(a1-2)[Gal(a1-3)]Gal(b1-4)GlcNAc(b1-6)]GalNAc
# Outline: as §1
# [17] = biological target: Fuc(a1-2)[Gal(a1-3)]Gal(b1-4)GlcNAc(b1-6)GalNAc
# Outline: as §1
# [18] = biological target: Fuc(a1-2)[Gal(a1-3)]Gal(b1-4)[Fuc(a1-3)]Glc
# Outline: as §1
# [19] = biological target: Fuc(a1-2)[Gal(a1-3)]Gal(b1-4)[Fuc(a1-3)]GlcNAc
# Outline: as §1
# [20] = biological target: Fuc(a1-2)[Gal(a1-3)]Gal(b1-4)[Fuc(a1-3)]GlcNAc(b1-3)GalNAc
# Outline: as §1
# [21] = biological target: Fuc(a1-2)[Gal(a1-4)]Gal(b1-4)GlcNAc
# Outline: as §1
# [22] = biological target: Fuc(a1-2)[GalNAc(a1-3)]Gal
# Outline: as §1
# [23] = biological target: Fuc(a1-2)[GalNAc(a1-3)]Gal(b1-3)GalNAc(a1-3)[Fuc(a1-2)]Gal(b1-4)GlcNAc
# Outline: as §1
# [24] = biological target: Fuc(a1-2)[GalNAc(a1-3)]Gal(b1-3)GalNAc(b1-3)Gal(a1-4)Gal(b1-4)Glc
# Outline: as §1
# [25] = biological target: Fuc(a1-2)[GalNAc(a1-3)]Gal(b1-3)GlcNAc
# Outline: as §1
# [26] = biological target: Fuc(a1-2)[GalNAc(a1-3)]Gal(b1-3)GlcNAc(b1-2)Man(a1-3)[Fuc(a1-2)[GalNAc(a1-3)]Gal(b1-3)GlcNAc(b1-2)Man(a1-6)]Man(b1-4)GlcNAc(b1-4)GlcNAc
# Outline: as §1
# [27] = biological target: Fuc(a1-2)[GalNAc(a1-3)]Gal(b1-3)GlcNAc(b1-2)Man(a1-3)[Fuc(a1-2)[GalNAc(a1-3)]Gal(b1-3)GlcNAc(b1-2)Man(a1-6)]Man(b1-4)GlcNAc(b1-4)[Fuc(a1-6)]GlcNAc
# Outline: as §1
# [28] = biological target: Fuc(a1-2)[GalNAc(a1-3)]Gal(b1-3)GlcNAc(b1-3)GalNAc
# Outline: as §1
# [29] = biological target: Fuc(a1-2)[GalNAc(a1-3)]Gal(b1-3)GlcNAc(b1-6)GalNAc
# Outline: as §1
# [30] = biological target: Fuc(a1-2)[GalNAc(a1-3)]Gal(b1-4)Glc
# Outline: as §1
# [31] = biological target: Fuc(a1-2)[GalNAc(a1-3)]Gal(b1-4)GlcNAc
# Outline: as §1
# [32] = biological target: Fuc(a1-2)[GalNAc(a1-3)]Gal(b1-4)GlcNAc(b1-2)Man
# Outline: as §1
# [33] = biological target: Fuc(a1-2)[GalNAc(a1-3)]Gal(b1-4)GlcNAc(b1-2)Man(a1-3)[Fuc(a1-2)[GalNAc(a1-3)]Gal(b1-4)GlcNAc(b1-2)Man(a1-6)]Man(b1-4)GlcNAc(b1-4)GlcNAc
# Outline: as §1
# [34] = biological target: Fuc(a1-2)[GalNAc(a1-3)]Gal(b1-4)GlcNAc(b1-2)Man(a1-3)[Fuc(a1-2)[GalNAc(a1-3)]Gal(b1-4)GlcNAc(b1-2)Man(a1-6)]Man(b1-4)GlcNAc(b1-4)[Fuc(a1-6)]GlcNAc
# Outline: as §1
# [35] = biological target: Fuc(a1-2)[GalNAc(a1-3)]Gal(b1-4)GlcNAc(b1-3)Gal(b1-4)GlcNAc
# Outline: as §1
# [36] = biological target: Fuc(a1-2)[GalNAc(a1-3)]Gal(b1-4)GlcNAc(b1-3)Gal(b1-4)GlcNAc(b1-3)Gal(b1-4)GlcNAc
# Outline: as §1
# [37] = biological target: Fuc(a1-2)[GalNAc(a1-3)]Gal(b1-4)GlcNAc(b1-3)GalNAc
# Outline: as §1
# [38] = biological target: Fuc(a1-2)[GalNAc(a1-3)]Gal(b1-4)GlcNAc(b1-3)[Fuc(a1-2)[GalNAc(a1-3)]Gal(b1-4)GlcNAc(b1-6)]GalNAc
# Outline: as §1
# [39] = biological target: Fuc(a1-2)[GalNAc(a1-3)]Gal(b1-4)GlcNAc(b1-6)GalNAc
# Outline: as §1
# [40] = biological target: Fuc(a1-2)[GalNAc(a1-3)]Gal(b1-4)[Fuc(a1-3)]GlcNAc
# Outline: as §1
# [41] = biological target: Fuc(a1-2)[GalNAc(a1-3)]Gal(b1-4)[Fuc(a1-3)]GlcNAc(b1-3)GalNAc
# Outline: as §1
# [42] = biological target: Fuc(a1-2)[GalNAc(a1-4)]Gal(b1-4)GlcNAc
# Outline: as §1
# [43] = biological target: Fuc(a1-2)[GalNAc(b1-3)]Gal
# Outline: as §1
binder,measurement,setting,value
"MXA PilAct-eGFP (Myxococcus xanthus), Q59589 (protein) MRVSRFNPRNRGFTLIELMIVVAIIGILAAIAIPNFIKFQARSKQSEAKTNLKALYTAQKSFFSEKDRYSDFANEIGFAPERGNRYGYRVSAAAGDCEVRNAADLPVPAAGVPCISNDSFRFGANSAIDDPTPVVARFVPQGAAGWNTTLGVQPTIADCPNCNFFAGARGNADNEATFDDWVIAGFEGSGQVGPCSEAGNVASGTPYNTRNDVACDGAAQ",glycan array binding signal (z-score),[1],1.32
same,glycan array binding signal (z-score),Fuc(a1-2)Gal6S(b1-4)Glc,-0.651
same,glycan array binding signal (z-score),[2],-0.24
same,glycan array binding signal (z-score),Fuc(a1-2)[Gal(a1-3)]Gal,0.325
same,glycan array binding signal (z-score),[3],0.663
same,glycan array binding signal (z-score),[4],-1.12
same,glycan array binding signal (z-score),[5],0.255
same,glycan array binding signal (z-score),[6],0.25
same,glycan array binding signal (z-score),[7],-0.622
same,glycan array binding signal (z-score),[8],0.837
same,glycan array binding signal (z-score),[9],0.16
same,glycan array binding signal (z-score),[10],-1.07
same,glycan array binding signal (z-score),[11],0.335
same,glycan array binding signal (z-score),[12],-0.112
same,glycan array binding signal (z-score),[13],-0.026
same,glycan array binding signal (z-score),[14],1.29
same,glycan array binding signal (z-score),[15],0.793
same,glycan array binding signal (z-score),[16],-0.204
same,glycan array binding signal (z-score),[17],-0.135
same,glycan array binding signal (z-score),[18],-0.722
same,glycan array binding signal (z-score),[19],0.578
same,glycan array binding signal (z-score),[20],0.458
same,glycan array binding signal (z-score),[21],-0.628
same,glycan array binding signal (z-score),[22],-0.675
same,glycan array binding signal (z-score),[23],0.464
same,glycan array binding signal (z-score),[24],2.1
same,glycan array binding signal (z-score),[25],-0.53
same,glycan array binding signal (z-score),[26],-0.758
same,glycan array binding signal (z-score),[27],-0.984
same,glycan array binding signal (z-score),[28],-1.7
same,glycan array binding signal (z-score),[29],-0.703
same,glycan array binding signal (z-score),[30],-0.648
same,glycan array binding signal (z-score),[31],0.218
same,glycan array binding signal (z-score),[32],-1.06
same,glycan array binding signal (z-score),[33],3.39
same,glycan array binding signal (z-score),[34],0.22
same,glycan array binding signal (z-score),[35],-0.546
same,glycan array binding signal (z-score),[36],-0.12
same,glycan array binding signal (z-score),[37],0.716
same,glycan array binding signal (z-score),[38],0.574
same,glycan array binding signal (z-score),[39],0.269
same,glycan array binding signal (z-score),[40],-1.19
same,glycan array binding signal (z-score),[41],-0.577
same,glycan array binding signal (z-score),[42],0.023
same,glycan array binding signal (z-score),[43],-0.376

# Reprinted at random: 3 entries already listed.
binder,measurement,setting,value
"MXA PilAct-eGFP (Myxococcus xanthus), Q59589 (protein) MRVSRFNPRNRGFTLIELMIVVAIIGILAAIAIPNFIKFQARSKQSEAKTNLKALYTAQKSFFSEKDRYSDFANEIGFAPERGNRYGYRVSAAAGDCEVRNAADLPVPAAGVPCISNDSFRFGANSAIDDPTPVVARFVPQGAAGWNTTLGVQPTIADCPNCNFFAGARGNADNEATFDDWVIAGFEGSGQVGPCSEAGNVASGTPYNTRNDVACDGAAQ",glycan array binding signal (z-score),[11],0.335
same,glycan array binding signal (z-score),[10],-1.07
same,glycan array binding signal (z-score),[8],0.837
